Measured values published in PubChem BioAssay AID2685 (National Center for Advancing Translational Sciences (NCATS), 2010).
This is one part of the list. Further columns of the screen follow, without active or inactive calls. The list favours compounds with an active or inconclusive main result. Potencies come from curve fits of mixed quality, noted in brackets.

Assay: qHTS Assay for Lipid Storage Modulators in Drosophila S3 Cells;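 as to cell number change: cells counted by Cell Tracker Red CMTPX staining in the red channel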
Settings: BODIPY lipid droplet fluorescence, 18-24 h; for cell number change: measured here: cell count max response, cells fed with added oleic acid
Summary of the method: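 Drosophila S3 cells loaded with oleic acid (400 uM, as added) and compounds at several concentrations; lipid droplets imaged by 488-nm laser-scanning cytometry, 500–530 nm intensity and object ratio to cell channel. Percent activity normalized to 20 uM Triacsin C.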

[1] = measured here: cell number channel AC50, cells fed with added oleic acid
[2] = measured here: lipid fluorescence (Fed channel) AC50, cells fed with added oleic acid

Compound | cell number change | AC50 [1] | AC50 [2]
COc1c(OC(C)=O)ccc(/C=C/c2ccc3cccc(OC)c3n2)c1[N+](=O)[O-] | -40% | 18.4 µM [falling, partial curve] | 18.4 µM [falling, single point]
CCCN(CC(=O)Nc1ccc(Cl)cc1Cl)C(=O)CC(NC(C)=O)c1ccccc1 (configuration not stated) | -5.95% |  | 0.58 µM [falling, single point]
Cn1c(=O)c2ccccc2n(Cc2ccccc2F)c1=O | -11.8% |  | 7.31 µM [rising, partial curve]
O=C(CCN1C(=O)/C(=C/c2ccc(F)cc2)SC1=S)NC1C=CS(=O)(=O)C1 (configuration not stated) |  |  | 0.116 µM [rising, single point]
CCC[n+]1c(C)sc2c3c(ccc21)CCCC3 | -43.4% | 6.51 µM [falling, partial curve, poor fit] | 2.91 µM [falling, single point]
O=C(N/N=C/c1ccnc2ccccc12)c1ccccc1O | -27.7% |  | 
O=C(CN1C(=O)C2C3C=CC(C3)C2C1=O)NCCc1ccccc1 (configuration not stated) | 76.5% |  | 
COc1ccc(/C=N/NC(=O)Cn2cnc3ccccc3c2=O)cc1 | -3.45% |  | 5.8 µM [falling, partial curve]
COc1ccc(OC)c(C(=O)COC(=O)c2[nH]c(C)c(C(C)=O)c2C)c1 | -22.9% |  | 
CCCC(=O)Oc1ccc2c(C)cc(=O)oc2c1 | -10.4% |  | 2.59 µM [falling, partial curve]
Cn1c(CCNC(=O)c2ccco2)nc2cc([N+](=O)[O-])ccc21 | 6.45% |  | 
COc1ccc(C(=O)CCC(=O)N2CCN(c3ccc(C)cc3)C(C)C2)cc1 (configuration not stated) | 33.1% | 18.4 µM [rising, single point] | 
Cc1ccc(NS(=O)(=O)c2ccc3c(c2)NC(=O)CCS3)cc1F | -3.44% |  | 29.1 µM [rising, single point]
O=C(O)CCN1C(=O)CC(N2C(=O)/C(=C/c3ccc(Cl)cc3)SC2=S)C1=O (configuration not stated) | -4.56% |  | 
O=C(CNCCO)Nc1ccc(F)c(Cl)c1 | -21% |  | 1.03 µM [falling, partial curve]
COc1cc2ncnc(NCc3ccccc3Cl)c2cc1OC | -45% | 4.61 µM [falling, full curve, poor fit] | 4.61 µM [falling, full curve]
FC(F)(F)c1cnc(Nc2ccc(N3CCOCC3)cc2)c(Cl)c1 | -8.41% |  | 2.91 µM [falling, partial curve]
Cc1ccc(S(=O)(=O)NCC(=O)OCc2ccccc2)cc1 | 13.4% |  | 
O=C(O)CSc1ccc2nnc(-c3cccnc3)n2n1 |  | 0.517 µM [rising, partial curve, poor fit] | 0.651 µM [rising, partial curve]
Cc1cccc(N2C(=O)CS/C2=N\NC(=O)c2ccc(Br)cc2)c1C | 29.8% |  | 29.1 µM [rising, single point]

Compound | cell number change | AC50 [1] | AC50 [2]
CN(C)c1ccc(CN(Cc2ccco2)C(=O)c2ccco2)cc1 | -4.59% |  | 0.00461 µM [falling, full curve, poor fit]
CCc1cc2c(cc3c(=O)n(CC(=O)N4CCN(C)CC4)ncn32)s1 | -2.06% |  | 4.11 µM [falling, single point]
COc1ccccc1-n1cc(C(=O)NCC(=O)NCc2ccc(F)cc2)c2ccccc2c1=O |  |  | 2.91 µM [rising, single point]
Cc1nc(C(=O)N(C)C)nn1-c1cc(Cl)ccc1Cl | -64.7% | 20.6 µM [falling, partial curve, poor fit] | 20.6 µM [falling, single point]
COc1cccc(C(CNc2ccc(S(=O)(=O)N3CCN(C)CC3)cc2[N+](=O)[O-])N(C)C)c1 (configuration not stated) | -19.1% |  | 6.51 µM [rising, single point]
COc1ccccc1Nc1nc(N)nc(CN2CCN(c3ccccc3F)CC2)n1 |  | 6.51 µM [rising, single point] | 6.51 µM [rising, single point]
Cc1ccc(C(=O)OCc2cn(-c3ccccc3)nn2)cc1 | 30.9% | 0.0164 µM [rising, full curve, poor fit] | 
CCC(c1nnnn1Cc1ccco1)N1CCC(C(N)=O)CC1 (configuration not stated) |  |  | 29.1 µM [falling, single point]
COc1cccc(/C=C/C(=O)OCC(=O)Nc2ccc(Cl)c(S(=O)(=O)N(C)C)c2)c1OC | 26.4% |  | 0.58 µM [rising, single point]
CCNc1nc(SC(C)C(=O)Nc2ccccc2)nc(N2CCOCC2)n1 (configuration not stated) | -29.3% |  | 16.4 µM [falling, single point]
COc1cccc(CN(CC2CCCO2)C(=O)c2cc3ccccc3oc2=O)c1 (configuration not stated) | 16.3% |  | 
CN1CCN(S(=O)(=O)c2ccc3c(c2)NC(=O)CS3)CC1 | -22.1% |  | 6.51 µM [falling, single point]
COc1cccc(-c2nc(NC(C)(C)C)c3ccccc3n2)c1O | -30% | 10.3 µM [falling, partial curve] | 0.00411 µM [rising, full curve, poor fit]
O=C(CN1CCN(S(=O)(=O)c2ccc(Cl)cc2)CC1)NCC1(N2CCOCC2)CCCCC1 | -9.87% | 1.64 µM [rising, single point] | 5.8 µM [falling, full curve, poor fit]
COc1ccccc1NS(=O)(=O)c1cccc(C(=O)NC2CCN(Cc3ccccc3)CC2)c1 | -32.8% | 5.8 µM [falling, partial curve, poor fit] | 4.11 µM [falling, partial curve, poor fit]
CC1CCN(CCCNC(=O)c2ccc(Cn3c(=S)[nH]c4ccc(Br)cc4c3=O)cc2)CC1 | 5.29% | 2.59 µM [rising, single point] | 
COc1ccc(S(=O)(=O)CCC(=O)N2CCN(c3ccc(F)cc3)CC2)cc1 | 33% |  | 
CCn1c(SCC(=O)Nc2ccc(NC(=O)c3ccco3)c(OC)c2)nc2ccccc2c1=O | -32.2% |  | 
CCOC(=O)CNC(=O)CSc1nnc(SCC(=O)NCC(=O)OCC)s1 | -21.7% |  | 
CC(C)(C)c1ccc(C(=O)NNC(=O)CCC(=O)Nc2ccccc2)cc1 | 24.6% |  | 5.8 µM [rising, full curve, poor fit]

4 entries drawn at random from those above, as already listed:
Compound | cell number change | AC50 [1] | AC50 [2]
CCc1cc2c(cc3c(=O)n(CC(=O)N4CCN(C)CC4)ncn32)s1 | -2.06% |  | 4.11 µM [falling, single point]
CC(C)(C)c1ccc(C(=O)NNC(=O)CCC(=O)Nc2ccccc2)cc1 | 24.6% |  | 5.8 µM [rising, full curve, poor fit]
COc1ccccc1NS(=O)(=O)c1cccc(C(=O)NC2CCN(Cc3ccccc3)CC2)c1 | -32.8% | 5.8 µM [falling, partial curve, poor fit] | 4.11 µM [falling, partial curve, poor fit]
O=C(CN1CCN(S(=O)(=O)c2ccc(Cl)cc2)CC1)NCC1(N2CCOCC2)CCCCC1 | -9.87% | 1.64 µM [rising, single point] | 5.8 µM [falling, full curve, poor fit]

The list goes on.

Compound | cell number change | AC50 [1] | AC50 [2]
Cc1cccc(NC(=S)N/N=C/c2ccc([N+](=O)[O-])s2)c1 | -29.3% |  | 16.4 µM [falling, partial curve]
CCC(C(=O)NCc1ccccc1OC)c1ccccc1 (configuration not stated) | 24.7% | 3.26 µM [rising, partial curve] | 2.31 µM [rising, partial curve]
COc1ccc(CN2CC(=O)N(c3cc(Cl)ccc3C)C2=S)cc1OC | -16.9% |  | 29.1 µM [falling, single point]
CCC(CC)c1nnc(NC(=O)CCCN2C(=O)c3ccccc3C2=O)s1 | 36.9% | 0.103 µM [rising, full curve, poor fit] | 
COn1c(SCC(=O)N(C)C)nc2ccccc2c1=O | -7.6% |  | 
COc1ccc(CCNC(=O)CSc2nnc(NC(C)=O)s2)cc1OC | -10.5% | 0.0058 µM [falling, full curve, poor fit] | 
C=CCNC(=S)Nc1sc2c(c1C#N)CCCC2 | 7.48% |  | 0.0461 µM [rising, single point]
O=S(=O)(Nc1cc(C(F)(F)F)ccc1N1CCOCC1)c1ccccc1 | 21.8% | 3.26 µM [falling, single point] | 5.8 µM [falling, single point]
CC1CCN(C(=O)CSc2nc3c(c(=O)n(C)c(=O)n3C)n2C)CC1 | 18.9% |  | 6.51 µM [falling, single point]
COc1ccccc1S(=O)Cc1ccc(C(=O)NC2CCCC2)o1 (configuration not stated) | 53.3% | 1.46 µM [rising, full curve] | 1.46 µM [rising, partial curve]
COCc1[nH]nc2c1C1(C(=O)Nc3ccc(F)cc31)C(C#N)=C(N)O2 (configuration not stated) | 28.2% |  | 0.13 µM [rising, full curve]
Cc1cccc(C(=O)NCC(=O)OCc2nnc(-c3ccccc3)o2)c1 | 23.8% |  | 16.4 µM [rising, single point]
CCOC(=O)CSC1=C(C#N)C(c2ccccc2Cl)C(C(=O)OC)C(=O)N1 (configuration not stated) | 8.99% |  | 0.0517 µM [rising, full curve, poor fit]
CC(C)C[C@]1(c2ccccc2)ON(c2ccccc2C(F)(F)F)C1=O | -82.3% | 29.1 µM [falling, single point] | 13 µM [falling, single point]
Cc1ccc(NC(=S)N/N=C2\CC(C)(C)Oc3ccc(O)cc32)cc1 | -28.6% |  | 29.1 µM [falling, single point]
CCCCn1c(SCC(=O)N(CC)C2CCS(=O)(=O)C2)nnc1C(CC)N(C)C (configuration not stated) | -42.1% | 3.66 µM [falling, full curve] | 29.1 µM [falling, single point]
CCCc1cc(=O)oc2cc(C)cc(OCC(=O)Nc3ccccn3)c12 | 9.92% |  | 2.31 µM [falling, partial curve]
Cc1nc(N)nc(COc2ccccc2)n1 | 15.5% |  | 0.517 µM [rising, full curve]
CSc1nc2ccc(Nc3nc(N4CCOCC4)nc(N4CCOCC4)n3)cc2s1 |  | 1.84 µM [rising, partial curve] | 
CCN1C(=S)N[C@@H](c2cccc(C(F)(F)F)c2)C(C(=O)OC)=C1C | -2.03% |  | 29.1 µM [falling, single point]
